# Laboratory results: PubChem BioAssay AID686943 (Drosophila RNAi Screening Center, 2013)
# Aim: 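Search across the genome for regulators of signalling from receptor tyrosine kinase to ERK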 (primary screen)
# Cells: Drosophila S2R+ haemocyte-like cells expressing YFP-tagged ERK (Rolled)
# Reagents: long dsRNA against Drosophila genes
# Treatment: insulin stimulation versus unstimulated cells; dose and duration not given
# Detection: 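Per-plate z-scores of phospho-ERK immunostaining normalised to YFP-tagged ERK, measured with and without insulin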
# Reading the numbers: replicate 1, z-score of dpERK with insulin and replicate 2, z-score of dpERK with insulin: higher = more active ERK per ERK-YFP after insulin; replicate 1, z-score of dpERK under basal conditions: higher = more basal active ERK per ERK-YFP; replicate 1, z-score of ERK-YFP with insulin: higher = more YFP-tagged ERK signal
# The deposit covers about 23,000 reagents; below is an unselected part of those with a known target gene and a result. 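Extra replicates exist only for a retested subset of genes; insulin dose and duration not given; both raised and lowered dpERK matter.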 The numbers tell different reagents against one gene apart. A plus sign joins genes that one reagent is predicted to hit. No sequences are given here. The record does not give: the amount of reagent, the time to read-out.
target,reagent,"replicate 1, z-score of dpERK with insulin","replicate 2, z-score of dpERK with insulin","replicate 1, z-score of dpERK under basal conditions","replicate 1, z-score of ERK-YFP with insulin"
Nep1 (Neprilysin 1),1,-0.62,-0.91,0.11,0.42
Nep1 (Neprilysin 1),2,-1.83,-1.14,-1.24,-1.8
CG8197,1,0.48,0.43,-0.31,0.32
Mmp1 (Matrix metalloproteinase 1),1,0.92,1.03,1.2,-0.63
Plod (procollagen lysyl hydroxylase),1,0.38,0.11,-0.22,-0.36
Plod (procollagen lysyl hydroxylase),2,-0.22,0.08,0.2,0.08
Cap-D3 (Chromosome associated protein D3),1,-0.14,-0.18,0.32,0.5
CG1578,1,0.82,1.32,1.33,0.1
CG10226,1,0.45,0,0.31,0.13
Miga (Mitoguardin),1,0.32,-0.54,-0.42,0.12
Ak2 (Adenylate kinase 2),1,-2.08,-0.93,-0.96,0.39
Smurf (SMAD specific E3 ubiquitin protein ligase),1,1.32,0.35,-0.33,-3.96
CG6220,1,-0.34,1.2,0.61,1.19
Reps (RALBP1 associated Eps domain containing),1,0.44,0.14,1.61,-1.24
Smg5 (Smg5 nonsense mediated mRNA decay factor),1,-4.94,-4.36,-0.21,1.84
ND-49L (NADH dehydrogenase (ubiquinone) 49 kDa subunit-like),1,0.5,-1.14,-0.31,0.04
mgr (merry-go-round),1,-0.32,-0.04,-1.42,0.72
CG14695,1,-0.94,-0.52,-0.56,0.8
TwdlT (TweedleT),1,0.02,-0.06,0.3,0.12
TwdlT (TweedleT),2,0.62,0.89,0.01,-0.07
smo (smoothened),1,0.52,-0.36,0.35,-1.12
karr,1,0,0.84,-0.19,0.53
Ccp84Af,1,-1.37,-1.83,-0.45,-2.03

Already shown: an excerpt of the list.
target,reagent,"replicate 1, z-score of dpERK with insulin","replicate 2, z-score of dpERK with insulin","replicate 1, z-score of dpERK under basal conditions","replicate 1, z-score of ERK-YFP with insulin"
Miga (Mitoguardin),1,0.32,-0.54,-0.42,0.12
Ak2 (Adenylate kinase 2),1,-2.08,-0.93,-0.96,0.39
Smurf (SMAD specific E3 ubiquitin protein ligase),1,1.32,0.35,-0.33,-3.96
CG6220,1,-0.34,1.2,0.61,1.19
Reps (RALBP1 associated Eps domain containing),1,0.44,0.14,1.61,-1.24

The list goes on.
target,reagent,"replicate 1, z-score of dpERK with insulin","replicate 2, z-score of dpERK with insulin","replicate 1, z-score of dpERK under basal conditions","replicate 1, z-score of ERK-YFP with insulin"
aus (argus),1,1.25,1.66,0.79,-1.66
aus (argus),2,1.72,1.62,0.22,-0.08
aus (argus),3,-0.92,1.14,-1.14,-0.12
Prtl99C (Protamine-like 99C),1,0.5,-0.03,-0.25,0.1
CG10283,1,-0.8,-0.16,0.23,-0.92
mex1 (midgut expression 1),1,0.05,-0.17,1.91,1.26
mkg-p (monkey king protein),1,0.7,0.27,1.27,-1.43
Grip91 (Gamma-tubulin ring protein 91),1,-0.01,1.5,2.55,-0.28
"Rgk2 (Rad, Gem/Kir family member 2)",1,0.28,0.47,0.63,0.28
"Rgk2 (Rad, Gem/Kir family member 2)",2,0.09,-4.01,0,0.23
teq (Tequila),1,-1.19,-0.3,0.17,1.61
teq (Tequila),2,-0.03,0.84,1.04,-0.37
teq (Tequila),3,-0.61,-0.39,-1.47,2.14
primo-2 + primo-1,1,0.42,0.26,-0.41,1.07
Snrk (SNF related kinase),1,0.52,0.77,0.15,0.09
Obp19a (Odorant-binding protein 19a),1,0.41,-0.19,-0.36,0.31
